Results are given in words; binding and its absence hold for the method and conditions named. For part of these data: Binding seen in cells or lysates may run through a third protein. Some results given as binding are weak or reduced against the parent protein; the word gives no strength. For part of these data: Tags and fused reporters may be left off the sequences shown. Each block holds one binder with its values, some of them ahead of it.
Experiments:
[1] = target: ASCC3^HR carrying helicase-dead D611A-D1453A mutations (human) (UniProt Q8N3C0); test: co-purification (Ni-NTA, Strep-Tactin, SEC); TRIP4 co-produced with ASCC3^HR in High Five cells; lysate in 500 mM NaCl, 20 mM HEPES-NaOH pH 7.5; Ni-NTA, then Strep-Tactin, then SEC on Superdex 200 in 250 mM NaCl
[2] = target: dual-cassette helicase region of ASCC3 (residues 401-2202; ASCC3^HR WT) (human) (UniProt Q8N3C0); test: as above
HA-RPA70 = HA-RPA70 (UniProt P27694); test: co-IP; anti-HA IP from HEK293T expressing vector or HA-RPA70, endogenous ASCC2/ASCC3 blotted; with or without 4 mM HU for 4 h; with or without DNase I (50 units) in the lysate

Protein sequences, listed by entry. Tags and fused reporters are not part of them. Lines headed by an entry give the natural chain unless they say otherwise; changes in a name come on top. Chains listed by the source or under a name are the forms on record and can include a tag or linker. Residues count along the entry.
dual-cassette helicase region of ASCC3 (residues 401-2202; ASCC3^HR WT) (Q8N3C0, residues 401-2202): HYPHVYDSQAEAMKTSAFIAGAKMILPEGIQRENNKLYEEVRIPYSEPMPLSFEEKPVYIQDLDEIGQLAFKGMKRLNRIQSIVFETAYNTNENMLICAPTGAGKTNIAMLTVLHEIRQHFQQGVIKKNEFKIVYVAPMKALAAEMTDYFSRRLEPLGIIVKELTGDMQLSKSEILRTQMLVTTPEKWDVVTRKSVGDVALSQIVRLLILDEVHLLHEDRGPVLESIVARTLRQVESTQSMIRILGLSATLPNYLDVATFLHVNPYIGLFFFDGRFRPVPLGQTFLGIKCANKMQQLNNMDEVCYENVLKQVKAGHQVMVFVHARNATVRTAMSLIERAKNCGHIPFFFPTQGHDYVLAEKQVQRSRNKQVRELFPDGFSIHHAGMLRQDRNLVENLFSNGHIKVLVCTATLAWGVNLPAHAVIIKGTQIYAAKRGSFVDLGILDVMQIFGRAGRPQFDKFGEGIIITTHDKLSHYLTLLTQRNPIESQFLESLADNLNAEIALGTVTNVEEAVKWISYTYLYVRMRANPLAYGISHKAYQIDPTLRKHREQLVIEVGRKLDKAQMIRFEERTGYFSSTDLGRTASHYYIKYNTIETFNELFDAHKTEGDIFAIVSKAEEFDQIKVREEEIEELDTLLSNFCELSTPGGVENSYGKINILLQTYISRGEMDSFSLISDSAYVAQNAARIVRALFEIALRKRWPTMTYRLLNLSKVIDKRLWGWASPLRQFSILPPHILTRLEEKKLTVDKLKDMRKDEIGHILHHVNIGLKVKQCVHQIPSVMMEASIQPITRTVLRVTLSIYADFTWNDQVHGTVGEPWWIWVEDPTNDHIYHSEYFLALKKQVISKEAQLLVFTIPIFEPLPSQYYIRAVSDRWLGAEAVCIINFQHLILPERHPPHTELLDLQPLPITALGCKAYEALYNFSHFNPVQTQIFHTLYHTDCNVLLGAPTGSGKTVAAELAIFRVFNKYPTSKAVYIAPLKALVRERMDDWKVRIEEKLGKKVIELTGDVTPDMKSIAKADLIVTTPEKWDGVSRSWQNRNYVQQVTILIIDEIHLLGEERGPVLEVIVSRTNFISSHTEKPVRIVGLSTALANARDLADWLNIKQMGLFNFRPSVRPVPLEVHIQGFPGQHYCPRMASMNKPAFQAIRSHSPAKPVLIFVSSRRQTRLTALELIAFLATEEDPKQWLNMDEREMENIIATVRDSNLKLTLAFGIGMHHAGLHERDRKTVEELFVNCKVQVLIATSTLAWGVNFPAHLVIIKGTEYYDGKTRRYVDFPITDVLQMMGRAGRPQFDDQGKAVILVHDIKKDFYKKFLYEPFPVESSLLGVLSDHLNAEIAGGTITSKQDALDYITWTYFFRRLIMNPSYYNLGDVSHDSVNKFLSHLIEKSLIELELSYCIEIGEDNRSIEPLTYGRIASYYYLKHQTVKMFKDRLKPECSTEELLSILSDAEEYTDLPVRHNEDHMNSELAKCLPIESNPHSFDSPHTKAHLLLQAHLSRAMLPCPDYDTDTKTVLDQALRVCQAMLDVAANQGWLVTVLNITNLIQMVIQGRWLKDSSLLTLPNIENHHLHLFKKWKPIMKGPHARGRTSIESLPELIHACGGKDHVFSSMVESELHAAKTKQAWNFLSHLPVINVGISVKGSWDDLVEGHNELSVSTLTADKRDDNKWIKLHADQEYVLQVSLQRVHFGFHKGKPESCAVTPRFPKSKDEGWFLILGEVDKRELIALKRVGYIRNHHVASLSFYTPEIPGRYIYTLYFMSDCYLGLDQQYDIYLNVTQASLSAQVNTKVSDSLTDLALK
ASCC3^HR carrying helicase-dead D611A-D1453A mutations (Q8N3C0, form named): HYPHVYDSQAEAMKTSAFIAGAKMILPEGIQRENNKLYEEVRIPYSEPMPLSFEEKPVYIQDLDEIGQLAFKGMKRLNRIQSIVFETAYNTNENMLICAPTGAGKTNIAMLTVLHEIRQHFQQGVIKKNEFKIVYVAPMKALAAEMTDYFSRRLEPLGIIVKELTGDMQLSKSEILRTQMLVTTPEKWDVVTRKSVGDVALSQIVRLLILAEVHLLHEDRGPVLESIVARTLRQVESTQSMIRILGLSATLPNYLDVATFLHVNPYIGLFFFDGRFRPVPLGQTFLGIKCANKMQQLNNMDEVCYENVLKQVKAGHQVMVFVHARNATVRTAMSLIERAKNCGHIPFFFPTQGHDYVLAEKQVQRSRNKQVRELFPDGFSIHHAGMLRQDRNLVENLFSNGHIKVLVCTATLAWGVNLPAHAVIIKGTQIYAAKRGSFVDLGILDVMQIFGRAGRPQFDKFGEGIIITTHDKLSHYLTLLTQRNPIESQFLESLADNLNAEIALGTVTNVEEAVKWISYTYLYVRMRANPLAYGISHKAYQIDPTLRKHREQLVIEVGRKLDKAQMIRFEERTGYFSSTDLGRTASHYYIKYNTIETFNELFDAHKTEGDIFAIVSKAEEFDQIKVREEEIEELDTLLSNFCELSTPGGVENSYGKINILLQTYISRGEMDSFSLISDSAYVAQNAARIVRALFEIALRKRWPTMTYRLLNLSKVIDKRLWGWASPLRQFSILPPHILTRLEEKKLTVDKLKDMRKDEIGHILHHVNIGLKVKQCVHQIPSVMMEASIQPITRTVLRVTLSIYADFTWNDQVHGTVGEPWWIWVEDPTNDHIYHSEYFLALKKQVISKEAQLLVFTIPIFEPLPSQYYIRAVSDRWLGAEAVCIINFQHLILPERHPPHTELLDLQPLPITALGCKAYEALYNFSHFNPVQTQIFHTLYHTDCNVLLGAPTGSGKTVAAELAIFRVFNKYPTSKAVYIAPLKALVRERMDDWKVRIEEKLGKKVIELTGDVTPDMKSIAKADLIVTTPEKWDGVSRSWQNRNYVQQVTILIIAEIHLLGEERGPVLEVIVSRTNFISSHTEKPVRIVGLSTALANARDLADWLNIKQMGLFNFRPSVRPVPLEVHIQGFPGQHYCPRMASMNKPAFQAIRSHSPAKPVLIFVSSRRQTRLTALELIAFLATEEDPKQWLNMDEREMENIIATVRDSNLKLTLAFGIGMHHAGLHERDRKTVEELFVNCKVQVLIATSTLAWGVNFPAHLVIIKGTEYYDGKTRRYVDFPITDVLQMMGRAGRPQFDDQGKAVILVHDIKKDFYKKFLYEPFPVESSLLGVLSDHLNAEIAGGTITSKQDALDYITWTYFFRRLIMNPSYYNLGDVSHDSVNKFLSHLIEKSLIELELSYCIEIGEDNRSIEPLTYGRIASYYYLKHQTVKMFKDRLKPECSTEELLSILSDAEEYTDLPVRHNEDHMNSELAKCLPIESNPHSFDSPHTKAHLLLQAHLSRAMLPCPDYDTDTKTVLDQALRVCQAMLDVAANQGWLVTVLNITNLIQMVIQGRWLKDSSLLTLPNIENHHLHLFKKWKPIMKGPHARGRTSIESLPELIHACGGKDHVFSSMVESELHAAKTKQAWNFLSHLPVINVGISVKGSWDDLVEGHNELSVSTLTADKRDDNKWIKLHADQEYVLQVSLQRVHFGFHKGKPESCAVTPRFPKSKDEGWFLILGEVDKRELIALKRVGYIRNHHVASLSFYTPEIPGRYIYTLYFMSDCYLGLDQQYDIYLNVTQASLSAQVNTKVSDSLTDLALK
UniProt P27694: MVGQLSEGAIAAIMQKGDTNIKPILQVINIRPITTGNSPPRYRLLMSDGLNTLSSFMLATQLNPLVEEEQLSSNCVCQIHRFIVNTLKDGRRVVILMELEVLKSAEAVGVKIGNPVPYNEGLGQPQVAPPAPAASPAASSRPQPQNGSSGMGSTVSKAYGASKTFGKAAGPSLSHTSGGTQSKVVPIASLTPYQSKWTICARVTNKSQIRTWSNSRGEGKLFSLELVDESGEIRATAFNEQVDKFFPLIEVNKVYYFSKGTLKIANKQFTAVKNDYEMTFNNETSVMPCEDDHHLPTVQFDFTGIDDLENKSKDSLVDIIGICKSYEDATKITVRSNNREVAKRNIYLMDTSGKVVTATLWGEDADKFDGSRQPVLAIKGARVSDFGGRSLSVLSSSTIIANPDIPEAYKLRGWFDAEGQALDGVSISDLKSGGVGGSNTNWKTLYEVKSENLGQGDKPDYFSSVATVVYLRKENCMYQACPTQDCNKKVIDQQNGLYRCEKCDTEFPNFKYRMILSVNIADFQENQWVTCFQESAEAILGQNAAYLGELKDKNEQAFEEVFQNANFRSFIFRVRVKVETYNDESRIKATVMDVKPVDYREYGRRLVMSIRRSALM

- binding [1]: binds
- binding [2]: binds
B1: full-length TRIP4 (TwinStrep-tagged) (protein, UniProt Q15650 1-581)
chain: MAVAGAVSGEPLVHWCTQQLRKTFGLDVSEEIIQYVLSIESAEEIREYVTDLLQGNEGKKGQFIEELITKWQKNDQELISDPLQQCFKKDEILDGQKSGDHLKRGRKKGRNRQEVPAFTEPDTTAEVKTPFDLAKAQENSNSVKKKTKFVNLYTREGQDRLAVLLPGRHPCDCLGQKHKLINNCLICGRIVCEQEGSGPCLFCGTLVCTHEEQDILQRDSNKSQKLLKKLMSGVENSGKVDISTKDLLPHQELRIKSGLEKAIKHKDKLLEFDRTSIRRTQVIDDESDYFASDSNQWLSKLERETLQKREEELRELRHASRLSKKVTIDFAGRKILEEENSLAEYHSRLDETIQAIANGTLNQPLTKLDRSSEEPLGVLVNPNMYQSPPQWVDHTGAASQKKAFRSSGFGLEFNSFQHQLRIQDQEFQEGFDGGWCLSVHQPWASLLVRGIKRVEGRSWYTPHRGRLWIAATAKKPSPQEVSELQATYRLLRGKDVEFPNDYPSGCLLGCVDLIDCLSQKQFKEQFPDISQESDSPFVFICKNPQEMVVKFPIKGNPKIWKLDSKIHQGAKKGLMKQNKAV

- binding (HA-RPA70): binds
B2: endogenous ASCC2 (HEK293T) (protein, UniProt Q9H1I8 1-757)
chain: MPALPLDQLQITHKDPKTGKLRTSPALHPEQKADRYFVLYKPPPKDNIPALVEEYLERATFVANDLDWLLALPHDKFWCQVIFDETLQKCLDSYLRYVPRKFDEGVASAPEVVDMQKRLHRSVFLTFLRMSTHKESKDHFISPSAFGEILYNNFLFDIPKILDLCVLFGKGNSPLLQKMIGNIFTQQPSYYSDLDETLPTILQVFSNILQHCGLQGDGANTTPQKLEERGRLTPSDMPLLELKDIVLYLCDTCTTLWAFLDIFPLACQTFQKHDFCYRLASFYEAAIPEMESAIKKRRLEDSKLLGDLWQRLSHSRKKLMEIFHIILNQICLLPILESSCDNIQGFIEEFLQIFSSLLQEKRFLRDYDALFPVAEDISLLQQASSVLDETRTAYILQAVESAWEGVDRRKATDAKDPSVIEEPNGEPNGVTVTAEAVSQASSHPENSEEEECMGAAAAVGPAMCGVELDSLISQVKDLLPDLGEGFILACLEYYHYDPEQVINNILEERLAPTLSQLDRNLDREMKPDPTPLLTSRHNVFQNDEFDVFSRDSVDLSRVHKGKSTRKEENTRSLLNDKRAVAAQRQRYEQYSVVVEEVPLQPGESLPYHSVYYEDEYDDTYDGNQVGANDADSDDELISRRPFTIPQVLRTKVPREGQEEDDDDEEDDADEEAPKPDHFVQDPAVLREKAEARRMAFLAKKGYRHDSSTAVAGSPRGHGQSRETTQERRKKEANKATRANHNRRTMADRKRSKGMIPS

— paper doi:10.1101/2025.07.24.666583
